This passage reports EC50 results from PubChem BioAssay AID434947 (Broad Institute, 2010).

Hit rate of the full screen: of about 2,200 compounds, about 15 (0.7%) were called active.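 Rule for the calls: active = fitted half-maximal concentration for loss of luminescence signal no more than a set limit of log units above the top tested concentration; inconclusive = flat fit with 30 to 70% signal loss, or invalid fit; inactive = half-maximal concentration above that set limit.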 Some of the results follow.

The experiment in a line: inhibitors of ADP-Glo detection reagents, dose response, artefact control for GSK3beta inhibitor project, biochemical, luminescence, cell-free, homogeneous (AID 434947). The following applies: 5 uM ADP. (ADP-Glo first removes unused ATP, then detects ADP through luciferase.)
`NC(=O)c1ncn([C@@H]2O[C@H](CO)[C@@H](O)[C@H]2O)n1`: the EC50 was inactive: > 30 µM.

Regarding `Nc1nc(NCCCN2CCOCC2)nc(Nc2ccccc2F)c1[N+](=O)[O-]`, the EC50 is inactive: > 30 µM.

Consider `CC(C)OC(=O)c1nnn(-c2nonc2N)c1CSc1ccccn1`, for which the EC50 is inactive: > 30 µM.

For the compound `Cc1ccc(NC(=O)Nc2cc(-c3ccccc3)nn2C)cc1Cl`, the EC50 is inactive: > 30 µM.

With `Fc1ccc(CNc2nc(-c3cccnc3)nc3ccccc23)cc1`, the EC50 was inactive: > 30 µM.

`Cc1ccc(C(C(=O)NC2CCCCC2)N(CC2CCCO2)C(=O)CNC(=O)c2cccs2)cc1` (stereo unspecified): the EC50 is inactive: > 30 µM.

With `O=C(O)CNCC1COc2ccccc2O1` (stereo unspecified), the EC50 is inactive: > 30 µM.

For `CCOC(=O)c1c(C)[nH]c(C)c1S(=O)(=O)N(C)CC(=O)Nc1cccc(F)c1`, the EC50 was inactive: > 30 µM.

Consider `CCOC(=O)c1c(C)[nH]c(C)c1S(=O)(=O)NCC(=O)Nc1ccccn1`, for which the EC50 is inactive: > 30 µM.

With `C/C(=N\NC(=O)c1nnn(-c2nonc2N)c1CN1CCc2ccccc21)c1ccccc1O`, the EC50 was inactive: > 30 µM.

`O=[N+]([O-])c1cc(Cl)ccc1N1CCCCC1`: the EC50 is inactive: > 30 µM.

Regarding `Cc1ccc(N(c2ncnc(N)c2[N+](=O)[O-])C2CCCCC2)cc1`, the EC50 is inactive: > 30 µM.

With `O=C(CS(=O)(=O)c1ccccc1)c1cc2ccccc2oc1=O`, the EC50 is inactive: > 30 µM.

In the case of `CCc1ccc(/C=N/Nc2ncnc3nc[nH]c23)cc1`, the EC50 was inactive: > 30 µM.

As to `CC(C)CNc1nc(N)c([N+](=O)[O-])c(NCC2CCCO2)n1` (stereo unspecified), the EC50 is inactive: > 30 µM.

As for `O=S(=O)(/C=C/c1ccccc1)N1CCN(Cc2ccc3c(c2)OCO3)CC1`, the EC50 was inactive: > 30 µM.

In the case of `CCCCC(=O)Nc1nn(CC(C)C)c2nc3ccccc3cc12`, the EC50 is inactive: > 30 µM.

For the compound `Cc1[nH]nc2c1C(c1cccs1)C1=C(CCCC1=O)N2` (stereo unspecified), the EC50 is inactive: > 30 µM.

Regarding `COc1ccc(-c2nn(-c3ccccc3)cc2/C=N/NC(=S)NC(C)C)cc1OC`, the EC50 is inactive: > 30 µM.

Consider `NC(=O)c1c(NC(=O)CN2C(=O)CCC2=O)sc2c1CCCCC2`, for which the EC50 was inactive: > 30 µM.

On to `Cc1ccc(-c2nnc(SCc3ccccc3F)o2)cc1`, for which the EC50 is inactive: > 30 µM.

Regarding `Cc1ccccc1NC(=O)CSc1nnc2ccc(-c3ccncc3)nn12`, the EC50 was inactive: > 30 µM.

In the case of `CC(C)OCCCN1CN(S(=O)(=O)c2cccc(Cl)c2)c2nc3ccccc3nc21`, the EC50 is inactive: > 30 µM.

Take `Nc1nc(NCCCN2CCOCC2)nc(Nc2cccc(Cl)c2)c1[N+](=O)[O-]`: the EC50 is inactive: > 30 µM.

Take `CCOC(=O)C1=C(C)Nc2ncnn2C1c1cc(OC)ccc1OC` (stereo unspecified): the EC50 was inactive: > 30 µM.

For the compound `CS(=O)(=O)N(Cc1ccccc1)c1ccc(C(=O)Nc2ccccc2Sc2ccccc2)cc1`, the EC50 is inactive: > 30 µM.

With `CN(C)Cc1ccc(-c2nc3cccc4c3n2CCNC4=O)cc1`, the EC50 is inactive: > 30 µM.

Take `Cc1ccc(Nc2nc(N)c([N+](=O)[O-])c(NCCO)n2)cc1C`: the EC50 is inactive: > 30 µM.

Turning to `Cc1nnc(SCC(=O)Nc2nccs2)n(N)c1=O`, the EC50 is inactive: > 30 µM.

Consider `COCCn1c(SCC(=O)NC(=O)NC(C)C)nc2ccccc21`, for which the EC50 is inactive: > 30 µM.

As to `O=C(Cn1nnc(-c2ccccc2)n1)N/N=C/c1ccc(-c2ccc(Cl)cc2)o1`, the EC50 was inactive: > 30 µM.

Consider `CSc1nnc2ccc(-c3cccs3)nn12`, for which the EC50 was inactive: > 30 µM.

Turning to `COc1ccc2c(c1)-c1c(ssc1=S)C(C)(C)N2C(=O)CSC1=NCCS1`, the EC50 was inactive: > 30 µM.

For `COc1cccc(CNS(=O)(=O)c2cc(CN3C(=O)c4cccnc4C3=O)ccc2OC)c1`, the EC50 is inactive: > 30 µM.

Take `CCOC(=O)N1CCC(NC(=O)c2cc3sccc3n2CC)CC1`: the EC50 was inactive: > 30 µM.

As for `Cn1c(SCc2nc(-c3ccccc3)no2)nnc1-c1ccco1`, the EC50 is inactive: > 30 µM.

As for `Cc1ccc2sc(N3CCN(CCNC(=O)c4ccco4)CC3)nc2c1C`, the EC50 was inactive: > 30 µM.

As to `O=C(c1noc2c1CCc1ccccc1-2)N1CCOCC1`, the EC50 was inactive: > 30 µM.

`CC1CCCCC1NS(=O)(=O)c1ccc2c(c1)CC(=O)N2C` (stereo unspecified): the EC50 is inactive: > 30 µM.

For `Cc1nn(-c2ccccc2)cc1/C=N/O`, the EC50 is inactive: > 30 µM.

Consider `O=C(C1=C[C@@H](c2ccc(C(F)(F)F)cc2)C[C@@H](OCCCCO)O1)N1CCN(Cc2ccccc2)CC1`, for which the EC50 was inactive: > 30 µM.

With `O=C(C1CCCO1)N1N=C(c2ccc(Br)cc2)CC1c1ccco1` (stereo unspecified), the EC50 is inactive: > 30 µM.

Take `CCc1ccc(C2NC(=S)NC3=C2C(=O)CC(C)(C)C3)cc1` (stereo unspecified): the EC50 is inactive: > 30 µM.

For the compound `CCOc1cc(C2c3c(n[nH]c3C)C(=O)N2c2ccc(Br)cc2)ccc1O` (stereo unspecified), the EC50 is inactive: > 30 µM.

Take `Cc1ccc2sc(N(CCN(C)C)C(=O)c3ccc(S(=O)(=O)N4CC(C)OC(C)C4)cc3)nc2c1C` (stereo unspecified): the EC50 was inactive: > 30 µM.

With `C=CCn1cc(/C=C/c2cc[n+](C)cc2)c2ccccc21`, the EC50 is inactive: > 30 µM.

Turning to `CCCCCC(=O)N1CCN(S(=O)(=O)c2ccc3c(c2)OCCCO3)CC1`, the EC50 is inactive: > 30 µM.

`CCCCC(=O)Nc1ncc(S(=O)(=O)c2ccc([N+](=O)[O-])cc2)s1`: the EC50 was inactive: > 30 µM.

Consider `Cc1ccc(C(=O)Nc2ncc([N+](=O)[O-])s2)cc1`, for which the EC50 was inactive: > 30 µM.

Consider `O=C(COc1ccc(Cl)cc1)Nc1ncc([N+](=O)[O-])s1`, for which the EC50 is inactive: > 30 µM.

Take `COc1ccc(/C=C2/S/C(=N/S(=O)(=O)Cc3ccccc3)NC2=O)cc1OC`: the EC50 is inactive: > 30 µM.

As to `O=C(COc1ccccc1[N+](=O)[O-])N/N=C/c1ccc(OC(=O)c2ccco2)cc1`, the EC50 is inactive: > 30 µM.

`CC(C)N1CCc2c(sc(NC(=O)Cc3ccccc3)c2C(N)=O)C1`: the EC50 was inactive: > 30 µM.

Take `O=C(N/N=C/c1ccccn1)c1cccnc1`: the EC50 is inactive: > 30 µM.

On to `COc1cccc2cc(CC(=O)c3ccccc3)c(=O)oc12`, for which the EC50 was inactive: > 30 µM.

On to `O=C(O)c1ccccc1Nc1ccnc(C(F)(F)F)c1`, for which the EC50 was inactive: > 30 µM.

Take `CC1CCCCN1c1ncnc2ccccc12` (stereo unspecified): the EC50 is inactive: > 30 µM.

As for `CCCn1c(SCC(=O)N2CCCCC2)nnc1-c1ccccn1`, the EC50 is inactive: > 30 µM.

Turning to `Nc1nc(F)nc2c1ncn2[C@@H]1O[C@H](CO)[C@@H](O)[C@H]1O`, the EC50 is inactive: > 30 µM.

On to `CCNc1nc(N)c(C(=O)c2ccc(Cl)s2)s1`, for which the EC50 is inactive: > 30 µM.

With `O=C1NC(=Nc2ccc(O)cc2)S/C1=C/c1ccco1`, the EC50 was inactive: > 30 µM.

With `CCN(c1ccccc1)S(=O)(=O)c1cc(NC(=O)Nc2ccccc2C#N)ccc1Cl`, the EC50 is inactive: > 30 µM.

In the case of `CCOC(=O)c1c(C)oc2c(CC(=O)c3ccccc3)c(Cl)c(O)c(O)c12`, the EC50 was inactive: > 30 µM.

On to `COc1ccccc1/C=C/C=C1\Oc2c(ccc(O)c2CN(C)C)C1=O`, for which the EC50 was inactive: > 30 µM.

Consider `O=C(Cc1ccccc1)Nc1ccc(N2CCOCC2)cc1`, for which the EC50 is inactive: > 30 µM.

Turning to `CC1CCN(c2nc3c(N)ncnc3n2[C@@H]2O[C@H](CO)[C@@H](O)[C@H]2O)CC1`, the EC50 was inactive: > 30 µM.

With `CN(C)c1cc[n+](CC(=O)N2c3ccccc3Sc3ccccc32)cc1`, the EC50 is inactive: > 30 µM.

For the compound `COC(=O)c1ccc(Nc2nc(-c3ccncc3)nc3ccccc23)cc1`, the EC50 is inactive: > 30 µM.

Take `COc1cc(-c2[nH]nc3c2C(c2ccco2)C(C#N)=C(N)O3)cc(OC)c1OC` (stereo unspecified): the EC50 is inactive: > 30 µM.

Regarding `CCOC(=O)C1=C(C)Nc2ncnn2C1c1c[nH]c2ccccc12` (stereo unspecified), the EC50 was inactive: > 30 µM.

With `Fc1ccc(CSc2ccc3nnc(-c4cccnc4)n3n2)cc1`, the EC50 was inactive: > 30 µM.

On to `COc1ccc(OC)c(C(=O)c2coc3ccc(OCC(=O)O)cc23)c1`, for which the EC50 is inactive: > 30 µM.

Turning to `Nc1nc(NCC2CCCO2)nc(Nc2cccc(Cl)c2)c1[N+](=O)[O-]` (stereo unspecified), the EC50 was inactive: > 30 µM.

In the case of `CCSc1nnc(NC(=O)CSc2nnc(CNC(=O)c3cc(OC)c(OC)c(OC)c3)o2)s1`, the EC50 is inactive: > 30 µM.

As for `CCOC(=O)c1ccc2ncc(C(=O)OCC)c(Nc3ccc(N4CCOCC4)cc3)c2c1`, the EC50 was inactive: > 30 µM.

`COc1ccc2c(c1)-c1c(ssc1=S)C(C)(C)N2`: the EC50 is inactive: > 30 µM.

As for `c1ccc(OCCCn2nnc(-c3ccncc3)n2)cc1`, the EC50 was inactive: > 30 µM.

In the case of `CCc1ccc(/C=N/NC(=O)c2nnn(-c3nonc3N)c2CN2CCOCC2)cc1`, the EC50 is inactive: > 30 µM.

Regarding `CCC(C)NCCOCCOc1ccc(Cl)cc1Br` (stereo unspecified), the EC50 was inactive: > 30 µM.

On to `CO/N=C/c1ccc(Oc2ccc(C)cc2)c([N+](=O)[O-])c1`, for which the EC50 is inactive: > 30 µM.

As to `Nc1nc(NCC2CCCO2)nc(NCC2CCCO2)c1[N+](=O)[O-]` (stereo unspecified), the EC50 is inactive: > 30 µM.

Take `COC(=O)c1nnn(-c2nonc2N)c1COc1ccc(C=O)cc1OC`: the EC50 is inactive: > 30 µM.

With `COCCCNc1nc(N)c([N+](=O)[O-])c(NC2CCCCC2)n1`, the EC50 was inactive: > 30 µM.

As for `CCNC(=O)NC(=O)CSc1nc2ccccc2n1CCOC`, the EC50 was inactive: > 30 µM.

In the case of `COc1ccccc1CNC(=O)OCc1nccnc1C(=O)Nc1ccc(Br)cn1`, the EC50 was inactive: > 30 µM.

On to `Cc1ccc(S(=O)(=O)NCC(=O)N(CCc2ccccc2)CC(=O)NCc2ccco2)cc1`, for which the EC50 was inactive: > 30 µM.

In the case of `CO/N=C(/CNC(=O)c1ccc(Cl)cc1Cl)c1ccc(Cl)cc1`, the EC50 is inactive: > 30 µM.

As for `C[n+]1ccccc1/C=C/c1cc(Br)ccc1O`, the EC50 was inactive: > 30 µM.

Consider `Cc1cc(NC(=O)CSc2nnc(C3CC3)n2Cc2ccccc2)no1`, for which the EC50 is inactive: > 30 µM.

As to `Cc1ccc2nc3c(cc2c1)c(NC(=O)c1ccccn1)nn3CC(C)C`, the EC50 is inactive: > 30 µM.

On to `COc1cccc(-c2c(C(=O)N/N=C(\C)c3ccncc3)nnn2-c2nonc2N)c1`, for which the EC50 is inactive: > 30 µM.

The term EC50 denotes the concentration needed to bring the measured effect to its halfway point.
